According to patent publication US5608091A, “Quinizarin compound, method for production thereof, and use therefor” (Nippon Shokubai Co., Ltd., priority 1993, dated 1997):

What was measured:
[1] = Reflectance of optical recording medium; settings: 770 nm to 800 nm, recording layer on polycarbonate, gold reflecting layer
[2] = Thermal transfer recording, color development strength and tone; settings: for Color development strength: thermal head 10 V, 4.0 m.sec., densitometer RD-914; for Color tone: thermal transfer recorded image
[3] = Electrophotographic toner copying test and xenon lamp lightfastness of copied images; settings: for Ratio of retention of color density: toner copied images, xenon lamp, black panel 63° C., 100 hours; for Color tone: toner, Table 10
[4] = Color filter color tone, transparency and lightfastness; settings: for Color tone and transparency of color filter: 3 parts dye in 97 parts polymethyl methacrylate; for Lightfastness of color filter: xenon lamp, black panel 63° C.

SMILES | Reflectance [1] | Color development strength [2] | Color tone [2] | Ratio of retention of color density [3] [%] | Color tone [3] | Color tone and transparency of color filter [4] | Lightfastness of color filter [4]
CCCCNc1c(F)c2c(c(Sc3ccccc3)c1Nc1c(OCC)cccc1OCC)C(=O)c1c(O)ccc(O)c1C2=O [Dye (241), 6-(2,6-diethoxyanilino)-7-butylamino-5-phenylthio-8-fluoroquinizarin] | not less than 70% | – | – | – | – | – | –
CCCCCCCCOc1c(Nc2c(Cl)cccc2Cl)c(Nc2c(Cl)cccc2Cl)c(F)c2c1C(=O)c1c(O)ccc(O)c1C2=O [(183)] | – | 2.14 | Cyan | – | – | – | –
CCOc1cccc(OCC)c1Nc1c(F)c2c(c(Sc3ccccc3)c1Nc1c(OCC)cccc1OCC)C(=O)c1c(O)ccc(O)c1C2=O [Dye (234), 6,7-bis(2,6-diethoxyanilino)-5-phenylthio-8-fluoroquinizarin] | not less than 70% | – | – | – | – | – | –
CCCCCCCCSc1c(Nc2c(C(C)C)cccc2C(C)C)c(Nc2c(C(C)C)cccc2C(C)C)c(F)c2c1C(=O)c1c(O)ccc(O)c1C2=O [Dye (232), 6,7-bis(2,6-diisopropylanilino)-5-octylthio-8-fluoroquinizarin] | not less than 70% | – | – | – | – | – | –
CCCCOc1c(Nc2c(CC)cccc2CC)c(Nc2c(CC)cccc2CC)c(F)c2c1C(=O)c1c(O)ccc(O)c1C2=O [(158)] | – | 2.43 | Cyan | 92 | Cyan | – | –
CCCCCCCCSc1c(Nc2c(C(C)C)cccc2C(C)C)c(NCCCC)c(F)c2c1C(=O)c1c(O)ccc(O)c1C2=O [Dye (239), 6-(2,6-diisopropylanilino)-7-butylamino-5-octylthio-8-fluoroquinizarin] | not less than 70% | – | – | – | – | – | –
CCCCCCCCOc1c(F)c2c(c(F)c1Nc1ccc(C(=O)OCCCC)cc1)C(=O)c1c(O)ccc(O)c1C2=O [(36)] | – | 2.39 | Magenta | 92 | Magenta | – | –
CCCCCCCCOc1c(Nc2cccc(C(=O)OCC)c2)c(Nc2cccc(C(=O)OCC)c2)c(F)c2c1C(=O)c1c(O)ccc(O)c1C2=O [(156)] | – | 2.28 | Cyan | 95 | Cyan | – | –
CCCCOc1c(Nc2c(CC)ccc(Cl)c2CC)c(Nc2c(CC)ccc(Cl)c2CC)c(F)c2c1C(=O)c1c(O)ccc(O)c1C2=O [(160)] | – | 2.34 | Cyan | 94 | Cyan | – | –
CC(C)c1cccc(C(C)C)c1Nc1c(F)c2c(c(F)c1Nc1c(C(C)C)cccc1C(C)C)C(=O)c1c(O)ccc(O)c1C2=O [(139)] | – | 2.42 | Cyan | 94 | Cyan | clear cyanogen color tone showing no sign of turbidity and diffusing a sensation of transparency | absolutely no sign of change in color tone
CCCCOc1c(Nc2c(C(C)C)cccc2C(C)C)c(Nc2c(C(C)C)cccc2C(C)C)c(F)c2c1C(=O)c1c(O)ccc(O)c1C2=O [(159)] | – | 2.36 | Cyan | 93 | Cyan | – | –
CCCCCCCCOc1c(F)c2c(c(F)c1Nc1ccc([N+](=O)[O-])cc1)C(=O)c1c(O)ccc(O)c1C2=O [(41)] | – | 2.61 | Magenta | 95 | Magenta | – | –
CCCCCCCCOc1c(F)c2c(c(F)c1Nc1ccc(C(=O)OCC)cc1)C(=O)c1c(O)ccc(O)c1C2=O [(33)] | – | 2.42 | Magenta | 91 | Magenta | – | –
CCCCCCCCSc1c(Nc2c(OCC)cccc2OCC)c(NCCCC)c(F)c2c1C(=O)c1c(O)ccc(O)c1C2=O [Dye (240), 6-(2,6-diethoxyanilino)-7-butylamino-5-octylthio-8-fluoroquinizarin] | not less than 70% | – | – | – | – | – | –
O=C1c2ccc(Nc3c(Cl)cccc3Cl)cc2C(=O)c2c(O)ccc(O)c21 [(102)] | – | 2.12 | Magenta | 92 | Magenta | – | –
CC(C)c1cccc(C(C)C)c1Nc1c(F)c2c(c(Nc3c(C(C)C)cccc3C(C)C)c1Nc1c(C(C)C)cccc1C(C)C)C(=O)c1c(O)ccc(O)c1C2=O [Dye (245), 5,6,7-tris(2,6-diisopropylanilino)-8-fluoroquinizarin] | 71% | – | – | – | – | – | –
CCCCCCCCOc1c(F)c2c(c(F)c1Nc1ccc(C#N)cc1)C(=O)c1c(O)ccc(O)c1C2=O [(45)] | – | 2.54 | Magenta | 94 | Magenta | – | –
CCc1cccc(CC)c1Nc1c(F)c2c(c(F)c1Nc1c(CC)cccc1CC)C(=O)c1c(O)ccc(O)c1C2=O [(137)] | – | 2.39 | Cyan | 95 | Cyan | – | –
CCCCOc1c(Nc2c(C)cccc2C(=O)OCC)c(Nc2c(C)cccc2C(=O)OCC)c(F)c2c1C(=O)c1c(O)ccc(O)c1C2=O [(162)] | – | 2.37 | Cyan | 93 | Cyan | – | –
CCCCCCCCOc1c(F)c2c(c(F)c1Nc1c(CC)cccc1CC)C(=O)c1c(O)ccc(O)c1C2=O [(51)] | – | 2.58 | Magenta | 90 | Magenta | – | –
CCCCCCCCSc1c(Nc2c(OCC)cccc2OCC)c(Nc2c(OCC)cccc2OCC)c(F)c2c1C(=O)c1c(O)ccc(O)c1C2=O [Dye (233), 6,7-bis(2,6-diethoxyanilino)-5-octylthio-8-fluoroquinizarin] | not less than 70% | – | – | – | – | – | –
CCCCCCCCOc1c(Nc2ccc(C(=O)OCC)cc2)c(Nc2ccc(C(=O)OCC)cc2)c(F)c2c1C(=O)c1c(O)ccc(O)c1C2=O [(157)] | – | – | – | 96 | Cyan | – | –
CCCCCCCCOc1c(Nc2c(C)cccc2C(=O)OCC)c(Nc2c(C)cccc2C(=O)OCC)c(F)c2c1C(=O)c1c(O)ccc(O)c1C2=O [(163)] | – | – | – | 92 | Cyan | – | –
O=C1c2c(O)ccc(O)c2C(=O)c2c(F)c(Nc3c(Cl)cccc3Cl)c(F)c(F)c21 [(22)] | – | 2.25 | Magenta | 94 | Magenta | clear magenta color tone showing no sign of turbidity and diffusing a sensation of transparency | absolutely no sign of change in color tone
CCCCCCCCOc1c(Nc2c(CC)ccc(Cl)c2CC)c(Nc2c(CC)ccc(Cl)c2CC)c(F)c2c1C(=O)c1c(O)ccc(O)c1C2=O [(161)] | – | – | – | 95 | Cyan | – | –
CCc1ccc(Cl)c(CC)c1Nc1c(F)c2c(c(F)c1Nc1c(CC)ccc(Cl)c1CC)C(=O)c1c(O)ccc(O)c1C2=O [(141)] | – | 2.35 | Cyan | – | – | – | –
